Consider one molecule from article PMC12847810.

The chains behind the UniProt entries cited, without tags or fusion partners.
UniProt Q9Y2H1: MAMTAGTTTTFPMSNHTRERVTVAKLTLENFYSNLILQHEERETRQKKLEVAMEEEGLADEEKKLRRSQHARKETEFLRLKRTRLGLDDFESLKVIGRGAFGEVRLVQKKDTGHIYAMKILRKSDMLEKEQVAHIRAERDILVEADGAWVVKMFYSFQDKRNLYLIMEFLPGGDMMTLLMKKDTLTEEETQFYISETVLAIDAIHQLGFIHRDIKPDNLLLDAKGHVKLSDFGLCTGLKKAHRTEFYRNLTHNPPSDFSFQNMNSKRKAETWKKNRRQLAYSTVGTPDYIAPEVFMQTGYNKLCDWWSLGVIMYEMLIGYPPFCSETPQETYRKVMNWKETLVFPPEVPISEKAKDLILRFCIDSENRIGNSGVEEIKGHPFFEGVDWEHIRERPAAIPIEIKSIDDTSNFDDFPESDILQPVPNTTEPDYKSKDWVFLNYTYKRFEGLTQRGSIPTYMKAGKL

No constants are given. Whether binding was seen depends on the method and setting. In cells and extracts the contact can be indirect. Some entries that bind do so weakly or less than the wild type.

The experiment addresses nuclear Dbf2-related kinase 2 (NDR2) (human (endogenous in H2030)) (UniProt Q9Y2H1). Nature of the experiment: co-IP; Pierce Co-IP Kit on extracts from T75-flask cultures of H2030 cells, non-transfected or transfected with NDR2 PIF, NDR2 KD or empty pcDNA3.

B1: ATG9A (protein, UniProt Q7Z3C6 1-839)
chain: MAQFDTEYQRLEASYSDSPPGEEDLLVHVAEGSKSPWHHIENLDLFFSRVYNLHQKNGFTCMLIGEIFELMQFLFVVAFTTFLVSCVDYDILFANKMVNHSLHPTEPVKVTLPDAFLPAQVCSARIQENGSLITILVIAGVFWIHRLIKFIYNICCYWEIHSFYLHALRIPMSALPYCTWQEVQARIVQTQKEHQICIHKRELTELDIYHRILRFQNYMVALVNKSLLPLRFRLPGLGEAVFFTRGLKYNFELILFWGPGSLFLNEWSLKAEYKRGGQRLELAQRLSNRILWIGIANFLLCPLILIWQILYAFFSYAEVLKREPGALGARCWSLYGRCYLRHFNELEHELQSRLNRGYKPASKYMNCFLSPLLTLLAKNGAFFAGSILAVLIALTIYDEDVLAVEHVLTTVTLLGVTVTVCRSFIPDQHMVFCPEQLLRVILAHIHYMPDHWQGNAHRSQTRDEFAQLFQYKAVFILEELLSPIVTPLILIFCLRPRALEIIDFFRNFTVEVVGVGDTCSFAQMDVRQHGHPQWLSAGQTEASVYQQAEDGKTELSLMHFAITNPGWQPPRESTAFLGFLKEQVQRDGAAASLAQGGLLPENALFTSIQSLQSESEPLSLIANVVAGSSCRGPPLPRDLQGSRHRAEVASALRSFSPLQPGQAPTGRAHSTMTGSGVDARTASSGSSVWEGQLQSLVLSEYASTEMSLHALYMHQLHKQQAQAEPERHVWHRRESDESGESAPDEGGEGARAPQSIPRSASYPCAAPRPGAPETTALHGGFQRRYGGITDPGTVPRVPSHFSRLPLGGWAEDGQSASRHPEPVPEEGSEDELPPQVHKV
B1: the binding result is “binds”.
